# Source: publication PMC12510028, “A biophysical and molecular characterization of the interaction between the Alzheimer risk factor BIN1 and the neuronal scaffold protein p140Cap” (The Journal of Biological Chemistry, 2025)
# These are yes or no findings as the source states them, for the method shown. For part of these data: Binding seen in cells or lysates may run through a third protein. Some results given as binding are weak or reduced against the parent protein; the word gives no strength. For part of these data: Where a sequence is shown, tags or fusion partners need not be part of it.
# T1: p140Cap from mouse brain (mouse (endogenous in mouse brain)) (UniProt Q9QWI6)
# T1 sequence: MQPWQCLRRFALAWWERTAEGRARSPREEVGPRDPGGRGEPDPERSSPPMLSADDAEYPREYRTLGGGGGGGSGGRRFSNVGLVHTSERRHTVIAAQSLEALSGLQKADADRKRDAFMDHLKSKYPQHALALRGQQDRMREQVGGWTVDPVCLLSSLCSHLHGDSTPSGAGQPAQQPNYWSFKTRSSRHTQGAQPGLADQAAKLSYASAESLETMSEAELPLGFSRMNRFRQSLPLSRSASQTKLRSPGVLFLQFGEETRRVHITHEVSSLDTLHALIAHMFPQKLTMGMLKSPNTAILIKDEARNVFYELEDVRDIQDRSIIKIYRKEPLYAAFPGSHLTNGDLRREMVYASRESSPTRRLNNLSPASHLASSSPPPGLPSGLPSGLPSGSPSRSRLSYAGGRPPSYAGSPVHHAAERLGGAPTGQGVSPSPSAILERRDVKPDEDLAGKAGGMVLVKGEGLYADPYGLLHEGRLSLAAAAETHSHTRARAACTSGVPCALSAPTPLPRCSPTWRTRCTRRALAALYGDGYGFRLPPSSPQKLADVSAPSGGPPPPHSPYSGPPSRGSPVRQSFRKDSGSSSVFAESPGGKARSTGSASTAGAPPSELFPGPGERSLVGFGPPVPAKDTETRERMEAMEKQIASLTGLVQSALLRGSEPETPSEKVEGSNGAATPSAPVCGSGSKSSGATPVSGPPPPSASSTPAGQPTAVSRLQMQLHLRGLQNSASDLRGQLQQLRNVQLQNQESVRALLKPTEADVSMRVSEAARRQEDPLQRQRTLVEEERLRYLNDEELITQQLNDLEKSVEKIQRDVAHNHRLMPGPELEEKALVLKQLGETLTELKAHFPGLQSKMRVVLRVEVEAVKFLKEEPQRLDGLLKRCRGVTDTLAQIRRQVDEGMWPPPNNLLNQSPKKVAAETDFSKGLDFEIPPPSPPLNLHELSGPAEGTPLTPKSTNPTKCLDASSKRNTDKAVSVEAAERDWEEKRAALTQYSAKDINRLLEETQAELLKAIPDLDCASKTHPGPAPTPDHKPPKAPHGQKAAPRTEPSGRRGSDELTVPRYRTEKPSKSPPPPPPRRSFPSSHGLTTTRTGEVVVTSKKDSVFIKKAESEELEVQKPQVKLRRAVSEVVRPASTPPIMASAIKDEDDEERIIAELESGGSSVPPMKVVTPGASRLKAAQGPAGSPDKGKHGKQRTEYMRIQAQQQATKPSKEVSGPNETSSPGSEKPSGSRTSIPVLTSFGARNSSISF
# T2: Avi-tagged BIN1 SH3 domain (human) (UniProt O00499)
# T2 sequence (chain, biotin within the 15 amino acid AviTag peptide (enzymatic, in E. coli)): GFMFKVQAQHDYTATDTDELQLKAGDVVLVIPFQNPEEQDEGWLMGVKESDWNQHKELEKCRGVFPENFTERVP
# T3: GST-tagged BIN1-SH3 domain fusion protein (WT) (human) (UniProt O00499)
# T3 sequence: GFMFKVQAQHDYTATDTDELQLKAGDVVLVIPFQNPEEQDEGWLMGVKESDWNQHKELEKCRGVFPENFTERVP
# Tests used:
# [1] = target: T1, p140Cap from mouse brain (mouse (endogenous in mouse brain)); assay: proximity ligation; Duolink in situ PLA on fixed paraffin sections of mouse brain (nTg, BIN1-cKO, BIN1-OE) with BIN1 rabbit mAb and p140Cap mAb
# [2] = target: T2, Avi-tagged BIN1 SH3 domain (human); assay: SPR; Biacore S200, Biotin CAPture chip; biotinylated Avi-BIN1-SH3 captured on flow cell 2, Avi-tagged CTX-M-14 β-lactamase on reference flow cell 1; peptides injected as analytes at 30 μl/min; 25 °C, 1X PBS-P+; steady-state analysis, 1:1 model; both purified
# [3] = target: T3, GST-tagged BIN1-SH3 domain fusion protein (WT) (human); assay: pull-down; 25 μg GST or GST-BSH3 (WT or mutant) on glutathione-Sepharose with 0.5 mg of 1% Triton X-100 soluble mouse brain homogenate, 2 h at room temperature; washes with 50 mM KCl, 150 mM NaCl, 1.5% IGEPAL; immunoblot for p140Cap and total tau; only the target purified
Molecule,binding [2],further results
BIN1 from mouse brain (from UniProt O08539 1-588),,binding [1]: binds
"p140Cap from mouse brain (protein, UniProt Q9QWI6 1-1250) MQPWQCLRRFALAWWERTAEGRARSPREEVGPRDPGGRGEPDPERSSPPMLSADDAEYPREYRTLGGGGGGGSGGRRFSNVGLVHTSERRHTVIAAQSLEALSGLQKADADRKRDAFMDHLKSKYPQHALALRGQQDRMREQVGGWTVDPVCLLSSLCSHLHGDSTPSGAGQPAQQPNYWSFKTRSSRHTQGAQPGLADQAAKLSYASAESLETMSEAELPLGFSRMNRFRQSLPLSRSASQTKLRSPGVLFLQFGEETRRVHITHEVSSLDTLHALIAHMFPQKLTMGMLKSPNTAILIKDEARNVFYELEDVRDIQDRSIIKIYRKEPLYAAFPGSHLTNGDLRREMVYASRESSPTRRLNNLSPASHLASSSPPPGLPSGLPSGLPSGSPSRSRLSYAGGRPPSYAGSPVHHAAERLGGAPTGQGVSPSPSAILERRDVKPDEDLAGKAGGMVLVKGEGLYADPYGLLHEGRLSLAAAAETHSHTRARAACTSGVPCALSAPTPLPRCSPTWRTRCTRRALAALYGDGYGFRLPPSSPQKLADVSAPSGGPPPPHSPYSGPPSRGSPVRQSFRKDSGSSSVFAESPGGKARSTGSASTAGAPPSELFPGPGERSLVGFGPPVPAKDTETRERMEAMEKQIASLTGLVQSALLRGSEPETPSEKVEGSNGAATPSAPVCGSGSKSSGATPVSGPPPPSASSTPAGQPTAVSRLQMQLHLRGLQNSASDLRGQLQQLRNVQLQNQESVRALLKPTEADVSMRVSEAARRQEDPLQRQRTLVEEERLRYLNDEELITQQLNDLEKSVEKIQRDVAHNHRLMPGPELEEKALVLKQLGETLTELKAHFPGLQSKMRVVLRVEVEAVKFLKEEPQRLDGLLKRCRGVTDTLAQIRRQVDEGMWPPPNNLLNQSPKKVAAETDFSKGLDFEIPPPSPPLNLHELSGPAEGTPLTPKSTNPTKCLDASSKRNTDKAVSVEAAERDWEEKRAALTQYSAKDINRLLEETQAELLKAIPDLDCASKTHPGPAPTPDHKPPKAPHGQKAAPRTEPSGRRGSDELTVPRYRTEKPSKSPPPPPPRRSFPSSHGLTTTRTGEVVVTSKKDSVFIKKAESEELEVQKPQVKLRRAVSEVVRPASTPPIMASAIKDEDDEERIIAELESGGSSVPPMKVVTPGASRLKAAQGPAGSPDKGKHGKQRTEYMRIQAQQQATKPSKEVSGPNETSSPGSEKPSGSRTSIPVLTSFGARNSSISF",,binding [3]: binds
GYGFRLPPSSPQKL (N-terminal acetylation; C-terminal amination (so in the source)) [p140Cap 14-mer peptide 498-512],no binding,
ERSLVGFGPPVPAK (N-terminal acetylation; C-terminal amination (so in the source)) [p140Cap 14-mer peptide 583-596],no binding,

# Now from value to molecule, other results behind:
binding [2],Molecule,further results
no binding (tested: 0.6–75 μM tested),KSPPPPP [p140Cap native class I 7-mer peptide],
no binding (tested: 0.6–75 μM tested),PPPPPPR [p140Cap native class IIb 7-mer peptide],
